Reference: publication PMC4701713, “DNA Entry into and Exit out of the Cohesin Ring by an Interlocking Gate Mechanism” (Cell, 2015)
No constants are given. Whether binding was seen depends on the method and setting. In cells and extracts the contact can be indirect. Binding can be weak; no strength is given. Tags and fused reporters may be left off the sequences shown.

Target: T1, Psm3 with epitope tag, within the cohesin tetramer carrying TEV-cleavable Rad21 (fission yeast) (UniProt O42649)
T1 sequence: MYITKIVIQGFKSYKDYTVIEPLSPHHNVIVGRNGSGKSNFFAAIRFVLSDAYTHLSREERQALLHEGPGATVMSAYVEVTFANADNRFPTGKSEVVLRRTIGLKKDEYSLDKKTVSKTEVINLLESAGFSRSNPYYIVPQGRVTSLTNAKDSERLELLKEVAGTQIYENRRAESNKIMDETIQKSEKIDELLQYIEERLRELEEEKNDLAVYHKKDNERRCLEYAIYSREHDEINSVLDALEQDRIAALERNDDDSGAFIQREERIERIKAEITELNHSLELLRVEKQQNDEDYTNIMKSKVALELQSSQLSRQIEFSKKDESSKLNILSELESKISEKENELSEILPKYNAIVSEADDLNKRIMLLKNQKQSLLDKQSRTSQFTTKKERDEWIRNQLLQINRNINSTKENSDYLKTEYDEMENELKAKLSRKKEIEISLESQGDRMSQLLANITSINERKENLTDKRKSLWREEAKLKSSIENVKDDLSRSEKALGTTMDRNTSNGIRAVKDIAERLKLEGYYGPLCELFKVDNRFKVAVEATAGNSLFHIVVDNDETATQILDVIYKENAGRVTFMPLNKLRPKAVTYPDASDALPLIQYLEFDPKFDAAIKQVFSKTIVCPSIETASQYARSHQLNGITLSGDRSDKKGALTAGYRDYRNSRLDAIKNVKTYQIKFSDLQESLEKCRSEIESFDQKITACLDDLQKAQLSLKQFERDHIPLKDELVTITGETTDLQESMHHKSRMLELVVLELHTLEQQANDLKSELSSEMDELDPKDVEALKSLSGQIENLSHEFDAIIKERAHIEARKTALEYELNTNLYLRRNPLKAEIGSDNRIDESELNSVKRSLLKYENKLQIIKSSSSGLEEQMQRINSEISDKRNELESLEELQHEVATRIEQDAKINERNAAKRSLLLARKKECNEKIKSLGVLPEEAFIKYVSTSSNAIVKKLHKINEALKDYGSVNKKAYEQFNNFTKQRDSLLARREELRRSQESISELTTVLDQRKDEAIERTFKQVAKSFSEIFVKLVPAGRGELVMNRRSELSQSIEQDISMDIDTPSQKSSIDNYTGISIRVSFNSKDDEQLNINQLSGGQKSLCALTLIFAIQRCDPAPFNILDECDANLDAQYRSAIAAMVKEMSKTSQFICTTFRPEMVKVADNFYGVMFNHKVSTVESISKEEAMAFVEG
Assay: co-IP; Rad21N dissociation: cohesin tetramer with TEV-cleavable Rad21 incubated with or without Pds5-Wapl or Mis4-Ssl3 and ATP, ADP or ATP-γ-S, Rad21 cut by TEV protease, cohesin immunoprecipitated via the epitope tag on Psm3; Rad21 fragments by western blotting; both purified

| binding | Substance |
| --- | --- |
| binds | Rad21C, C-terminal TEV cleavage product of Rad21 (fission yeast) (domain or fragment) |
| binds | Rad21N, N-terminal TEV cleavage product of Rad21 (fission yeast) (domain or fragment) |
